Experimental data: the supplement of paper PMC4604168 (melanoma cell lines)
The other results are listed elsewhere or left out. Many values rest on one well or one pass, so single values are uncertain.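 Cells were imaged in 1,536-well plates, and nuclei stained with an antibody against cleaved PARP were counted against all DNA-stained nuclei to give the apoptosis fraction. Screening doses were chosen to leave most cells alive, and resting and induced cleaved-PARP levels differ strongly between cell lines.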

Assays:
Test in all cases: cleaved PARP positive nuclei fraction relative to DMSO control; melanoma cells; higher = more apoptosis
Settings in all cases: library dose: low library concentration; 72 h
MZ2-MEL = tested on: MZ2-MEL
MeWo = tested on: MeWo
RPMI7951 = tested on: RPMI7951
RVH-421 = tested on: RVH-421
SkMel28 = tested on: SkMel28
SkMel2 = tested on: SkMel2
SkMel30 = tested on: SkMel30
SkMel5 = tested on: SkMel5
UACC257 = tested on: UACC257
UACC62 = tested on: UACC62
WM115 = tested on: WM115
WM1716 = tested on: WM1716
WM1745 = tested on: WM1745
WM3526 = tested on: WM3526
WM3619 = tested on: WM3619
WM451Lu = tested on: WM451Lu

Structure (SMILES) | cleaved PARP positive nuclei fraction (MZ2-MEL) [%] | cleaved PARP positive nuclei fraction (MeWo) [%] | cleaved PARP positive nuclei fraction (RPMI7951) [%] | cleaved PARP positive nuclei fraction (RVH-421) [%] | cleaved PARP positive nuclei fraction (SkMel28) [%] | cleaved PARP positive nuclei fraction (SkMel2) [%] | cleaved PARP positive nuclei fraction (SkMel30) [%] | cleaved PARP positive nuclei fraction (SkMel5) [%] | cleaved PARP positive nuclei fraction (UACC257) [%] | cleaved PARP positive nuclei fraction (UACC62) [%] | cleaved PARP positive nuclei fraction (WM115) [%] | cleaved PARP positive nuclei fraction (WM1716) [%] | cleaved PARP positive nuclei fraction (WM1745) [%] | cleaved PARP positive nuclei fraction (WM3526) [%] | cleaved PARP positive nuclei fraction (WM3619) [%] | cleaved PARP positive nuclei fraction (WM451Lu) [%]
C=C(c1ccc(C(=O)O)cc1)c1cc2c(cc1C)C(C)(C)CCC2(C)C [Bexarotene] + O=C(CCCCCCC(=O)Nc1ccccc1)NO [vorinostat] (first compound 2 µM, partner dose 0.08 µM) | 148 | 90.5 | 63.1 | 79.5 | 250 | 130 | 192 | 67.6 | 114 | 116 | 32.9 | 88.1 | 86.5 | 67.6 | 104 | 27.9
O=C(O)[C@@H]1[O][Sb](=[O])([O][Sb]2(=[O])[O][C@H]([C@H](O)CO)[C@H](O)[C@H](C(=O)O)[O]2)[O][C@H]([C@H](O)CO)[C@@H]1O (some centres not stated) [stibogluconate] + Cc1cc(N2CCOCC2)cc2[nH]c(-c3c(NC[C@@H](O)c4cccc(Cl)c4)cc[nH]c3=O)nc12 [BMS536924] (first compound 2 µM, partner dose 0.2 µM) | 94 | 77.3 | 107 | 71.9 | 83.4 | 103 | 69.1 | 102 | 164 | 303 | 47.1 | 21 | 101 | 255 | 99.9 | 114
Nc1nc(F)nc2c1ncn2[C@@H]1O[C@H](CO)[C@@H](O)[C@@H]1O [fludarabine] + CC(C)(C)c1cnc(CSc2cnc(NC(=O)C3CCNCC3)s2)o1 [SNS-032] (first compound 0.2 µM, partner dose 0.01 µM) | 85 | 902 | 134 | 198 | 119 | 1210 | 3040 | 383 | 78.5 | 25.5 | 166 | 88.4 | 104 | 222 | 96.1 | 800
O=C(O)[C@@H]1[O][Sb](=[O])([O][Sb]2(=[O])[O][C@H]([C@H](O)CO)[C@H](O)[C@H](C(=O)O)[O]2)[O][C@H]([C@H](O)CO)[C@@H]1O (some centres not stated) [stibogluconate] + O=C(Nc1cccc(Cl)c1)Nc1ncc(CCNc2ncnc3ccsc23)s1 [SNS314] (first compound 2 µM, partner dose 0.0008 µM) | 198 | 96.2 | 125 | 73.7 | 18.3 | 95.7 | 185 | 124 | 24.5 | 116 | 85 | 62.5 | 94 | 67.6 | 90.8 | 360
Nc1ncn([C@H]2C[C@H](O)[C@@H](CO)O2)c(=O)n1 [decitabine] + CC(C)(C)c1cnc(CSc2cnc(NC(=O)C3CCNCC3)s2)o1 [SNS-032] (first compound 0.1 µM, partner dose 0.01 µM) | 306 | 184 | 52.1 | 52 | 179 | 161 | 68 | 90.1 | 92 | 99.9 | 193 | 76.9 | 435 | 120 | 104 | 72
C=C(c1ccc(C(=O)O)cc1)c1cc2c(cc1C)C(C)(C)CCC2(C)C [Bexarotene] + OCCn1cc(-c2cnc3nnn(Cc4ccc5ncccc5c4)c3n2)cn1 [PF04217903] (first compound 2 µM, partner dose 1 µM) | 69 | 131 | 50.9 | 49.4 | 69 | 161 | 60.3 | 43.1 | 31.2 | 37.4 | 94.9 | 116 | 105 | 125 | 98.9 | 115
CS(=O)(=O)CCNCc1ccc(-c2ccc3ncnc(Nc4ccc(OCc5cccc(F)c5)c(Cl)c4)c3c2)o1 [lapatinib] + O=C(O)c1ccc(-c2c[nH]c3ncc(-c4ccccc4)cc23)cc1C1CCCC1 [GSK650394] (first compound 0.8 µM, partner dose 0.16 µM) | 146 | 94.7 | 38.1 | 70.6 | 69.7 | 67.1 | 394 | 140 | 60.7 | 182 | 115 | 54.6 | 81.1 | 41.1 | 78.4 | 125
